Assay: Solubility of marketed Drug Products: cyclodextrin to drug ratio
Details: CD = sulfobutyl ether β-cyclodextrin

CC(=O)[C@H]1CC[C@H]2[C@@H]3CC[C@H]4C[C@H](O)CC[C@]4(C)[C@H]3C(=O)C[C@]12C [Alphaxalone]
CD/D (mol/mol): 2.1 mol/mol
